# Measurements as given in the supplement of paper PMC3334620.
# Whole data set: some 33,000 sequences, median “E-score (-0.5 to 0.5)” near -0.015, cut for the highest 2% near 0.3. The list shows a part of the results.
# Target: T1, Abf1 (UniProt P14164)
# T1 sequence: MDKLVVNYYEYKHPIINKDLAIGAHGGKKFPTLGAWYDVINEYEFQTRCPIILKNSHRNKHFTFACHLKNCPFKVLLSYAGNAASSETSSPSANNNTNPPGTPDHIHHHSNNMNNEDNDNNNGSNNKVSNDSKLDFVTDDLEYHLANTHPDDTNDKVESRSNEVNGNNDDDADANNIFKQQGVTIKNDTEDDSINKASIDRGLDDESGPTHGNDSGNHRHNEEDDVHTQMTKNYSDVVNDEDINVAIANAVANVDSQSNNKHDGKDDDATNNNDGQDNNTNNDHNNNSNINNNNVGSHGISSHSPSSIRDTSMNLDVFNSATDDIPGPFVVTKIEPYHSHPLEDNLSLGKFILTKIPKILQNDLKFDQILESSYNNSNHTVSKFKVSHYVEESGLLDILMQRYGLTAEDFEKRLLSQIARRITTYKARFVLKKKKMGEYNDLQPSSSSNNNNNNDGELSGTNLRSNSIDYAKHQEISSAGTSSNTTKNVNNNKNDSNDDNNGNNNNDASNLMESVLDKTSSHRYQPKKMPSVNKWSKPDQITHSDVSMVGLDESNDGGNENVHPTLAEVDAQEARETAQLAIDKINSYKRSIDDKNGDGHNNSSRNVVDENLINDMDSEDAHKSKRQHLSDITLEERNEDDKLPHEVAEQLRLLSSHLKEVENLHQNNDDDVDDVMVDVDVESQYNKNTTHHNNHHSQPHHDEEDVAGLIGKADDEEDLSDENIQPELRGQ
# Assay: PBM E-score (8-mer binding enrichment) (E-score (-0.5 to 0.5)); higher = stronger / more preferred TF binding
# Settings: protein concentration: 200 nM; construct: GST-full length
# How it was run: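 E-scores (a modified Wilcoxon-Mann-Whitney statistic) were assigned by the Universal PBM Analysis Suite to every ungapped eight-base word pooled with its reverse complement. The input came from universal all-10-mer Agilent arrays made double-stranded by primer extension and probed with GST-tagged yeast transcription factors at about 100-200 nM. Fluorescent anti-GST detected bound protein, and masliner normalised the scans.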
row,Sequence,PBM E-score
1,GTAGCGTA,-0.00254
2,AGATGCAG,-0.0468
3,AATTATCT,0.109
4,CTCTTATA,0.086
5,TCAATGGA,0.0383
6,ATACTTTG,0.0635
7,GGTCGTGA,0.195
8,GAGAACCC,-0.214
9,GACCCCAC,-0.0324
10,ACCTGACC,-0.107
11,AAAAACAC,0.159
12,CAGTGCAC,-0.0903
13,AAGAACAC,0.0202
14,AAATTGTG,-0.15
15,AAGGCTGA,-0.115
16,ACCGAACT,-0.149
17,CTGGTTTC,-0.0524
18,AGCACAAC,0.0445
19,CACGCTGA,0.0322
20,CAGCGCAG,-0.24
21,CAAGACCC,-0.197
22,AAGACTCG,0.0329
23,GACGCCTA,-0.14
24,CCAGTGAA,-0.173
25,CCGCGGCG,-0.13

row,Sequence,PBM E-score
1,ACTTCATC,0.0566
2,GAAGGTAC,-0.0411
3,AGGTCGTG,0.2
4,CGATTGTC,0.118
5,CAAAAGCC,-0.186
6,AATACAGC,-0.00478
7,CTGATCGA,-0.213
8,TCCCCAAA,-0.0039
9,AGGCCACA,-0.155
10,ATCCCTCG,-0.17
11,AGGTAATA,0.161
12,GTGGCCCA,-0.163
13,CTGCATAA,0.0396
14,AAAGCCTT,-0.219
15,CGTGATAA,0.408
16,GAGGCCAC,-0.226
17,AGTTCACC,0.245
18,GTTTGGTA,0.113
19,CCTCACAG,-0.0389
20,ATTCTTCG,0.073
21,CAATGATA,0.322
22,CCTAGCAG,-0.101
23,CTACGCAA,-0.0747
24,AGTCTTAT,-0.0876
25,AGTTTACG,0.113

row,Sequence,PBM E-score
1,GTTGGTTA,0.0495
2,AGCCACGA,0.0221
3,CACCTGGG,-0.156
4,AGTGATGG,0.056
5,ACTTAGTG,0.144
6,AGGCCATA,-0.244
7,AGGATAAC,0.0176
8,ATCGATAC,0.111
9,CCATCGAC,-0.0625
10,ATGGTAAC,0.179
11,TAGAAAAA,-0.0291
12,AACTATGA,-0.0323
13,GAACGTCC,0.019
14,CCCGCAGC,-0.237
15,CTATCTGC,-0.13
16,GGGAAATA,0.0587
17,GCCACGTA,0.0352
18,GATCGCAA,0.118
19,GGCAGTTA,0.101
20,CAACGGCA,0.138
21,AAATGAAC,-0.12
22,CGCGGTCC,-0.233
23,CATGCTTC,-0.0333
24,CAGCTACG,-0.0204
25,GTCATTAA,0.385

row,Sequence,PBM E-score
1,GACAGATA,0.0295
2,CAGACGAA,0.324
3,CGCTTCGA,0.00313
4,GGCCAGAA,-0.0972
5,AAACCGCG,-0.0683
6,CGAGCAAA,0.179
7,CCGAGATA,0.0419
8,ACTACTTA,0.209
9,TCCCGGGA,-0.231
10,CCTCGGCA,-0.0984
11,ACAACAAA,0.127
12,CTCTGGAA,0.00186
13,CACTGGAC,0.171
14,GCGCCTGA,-0.0596
15,ATAGGGAT,0.0162
16,AAGCACCG,-0.0865
17,CTTGCTTC,-0.101
18,AGTTCATA,-0.139
19,GTCACAAC,0.212
20,GCGAGGAC,-0.164
21,CGACGGAA,0.0999
22,CCACACAC,-0.164
23,AGAAATCA,0.247
24,CCCCTAGA,0.0173
25,ATGGAAAT,0.0131

row,Sequence,PBM E-score
1,GGGATACA,-0.0572
2,GGCAGCGA,-0.143
3,ACCGAGGC,-0.116
4,GACGGTCA,0.018
5,GGTCTCGA,0.0265
6,CTCCGGAC,0.0268
7,AACGCGCG,0.204
8,CCGTCCAG,0.0522
9,GTGCCATA,-0.14
10,GATGATGC,0.152
11,GCTAAGCC,-0.231
12,CCGCGTAG,-0.167
13,TAACGCAA,0.176
14,GGATACTA,0.0897
15,GAACGTTA,-0.0439
16,ACACAGGC,-0.265
17,GGAACCAA,-0.124
18,GATCCCCC,-0.176
19,AAGAGTGG,-0.273
20,CATTACGG,0.0863
21,GGTCTAGA,-0.0801
22,GCGCATAC,0.0236
23,CACGGTAA,0.109
24,ATCTAAAG,-0.103
25,CTTAGGCC,-0.169

row,Sequence,PBM E-score
1,AGTTGCCG,-0.12
2,CCGTTCAG,0.0329
3,CCTTTTCG,0.121
4,ACGTCTAA,0.196
5,CTCCTCAA,-0.262
6,CGCTAGCC,-0.0921
7,GTTCCCAA,0.036
8,CCGATATA,0.0343
9,CTCCCCAA,-0.135
10,AATTATTA,0.251
11,GCGCAACC,-0.102
12,CGCAACAC,-0.131
13,AAGTCGGG,-0.122
14,CCCAGTGA,-0.119
15,GACTTTGA,0.0441
16,ATAATATC,0.281
17,CGTTGGTA,0.256
18,ACCGCCCG,-0.221
19,CCCAGTTA,-0.2
20,CACATGTA,0.0379
21,AGTCTCAT,-0.0453
22,CTGTATTA,0.0565
23,CTATTGGA,0.178
24,CTAGGGAA,-0.0615
25,CTCGACAC,-0.0144

# Some values from the list.
# PBM E-score with AATTATTA is entered as 0.251
# PBM E-score with GCGCAACC is entered as -0.102
# PBM E-score with CTGTATTA is entered as 0.0565
# PBM E-score with CCGATATA is entered as 0.0343
# PBM E-score with CTCGACAC is entered as -0.0144
# PBM E-score with CTATTGGA is entered as 0.178
# PBM E-score with CGCAACAC is entered as -0.131

# Further results follow.

row,Sequence,PBM E-score
1,GTCACCGA,0.284
2,GGATAGTA,0.129
3,CTGATTAC,0.253
4,ACATGCAC,-0.00189
5,CCGTAGGC,0.026
6,GACAGCCC,-0.139
7,TATTAGCA,0.068
8,CCCCATCG,-0.0893
9,CGGACATA,0.0662
10,ATACGGCC,0.208
11,CGACTCCA,-0.217
12,GGTCGATA,0.0222
13,GAGATGAC,0.141
14,AACCAGAC,-0.0734
15,CCATCTGC,0.0477
16,GCCAAATA,0.0494
17,GCCGATCC,-0.254
18,GTGGTGCA,-0.209
19,AGTGCAAC,-0.0826
20,GAGCATCC,-0.0798
21,CGCAATAC,0.0749
22,GTGCTCGA,-0.0517
